Measurements reported in patent publication US10022356B2, “Compounds for treatment of cancer” (UNIVERSITY OF TENNESSEE RESEARCH FOUNDATION, priority 2013, dated 2018).
For at least one compound, name, drawing or mass did not settle the structure.

Tested on: A375RF21
Assay: MTS cell proliferation assay on vemurafenib-resistant A375RF21 cells
Type: cell-based, human

## CCCS(=O)(=O)Nc1ccc(F)c(C(=O)c2c[nH]c3ncc(-c4ccc(Cl)cc4)cc23)c1F [Vemurafenib, reference compound]
  increase of IC50 in A375RF21 versus parental A375: over 50 fold
